This passage reports AC50 results from PubChem BioAssay AID493014 (National Center for Advancing Translational Sciences (NCATS), 2011).

In general, AC50 refers to the concentration at which the activity in the assay is half-maximal.

This experiment in a line: qHTS Assay to Find Inhibitors of Chronic Active B-Cell Receptor Signaling. To be noted: ABC-DLBCL IkBa-CBG/CBR reporter, luminescence ratio (green luciferase fused to IkBa over red control in TMD8 lymphoma cells), 4 h. Put shortly:
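TMD8 ABC-DLBCL cells carrying doxycycline-inducible green luciferase fused to IkappaBalpha plus unfused red luciferase were exposed to compounds (up to 46 uM) for 4 hrs at 37C. Activity came from the overlap-corrected green/red luminescence ratio.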
A general note: Quantitative high-throughput screening tests each substance at several concentrations.

Setting [1] is: measured here: CBR red luminescence, cell number.
Setting [2] is: measured here: IkBa-CBG green luminescence.

The structures appear in SMILES notation. The list shows a part of the results. Shown are side measurements of this screen, not its main read-out; they come without a call. The list favours compounds with an active or inconclusive main result. The note in brackets gives the kind of curve behind each potency; many fits are weak.

As to `O=C(O)c1cccc(CN2C(=O)S/C(=C/c3ccccc3[N+](=O)[O-])C2=O)c1`, the AC50 under setting [1] was 15.8 µM [falling, single point].

As to `CC(=O)c1ccc(OCCOc2ccc(Cl)c3cccnc23)cc1`, the AC50 under setting [1] is 1.41 µM [rising, partial curve].

In the case of `O=[N+]([O-])c1cccc(-c2cc(-c3cc(Br)ccc3O)[nH]n2)c1`, under setting [1], the AC50 was 0.158 µM [rising, full curve].

Take `CSCCC(NS(=O)(=O)c1ccc(C)cc1)C(=O)N1CCN(S(=O)(=O)c2ccc(F)cc2)CC1` (stereo unspecified): under setting [1], the AC50 is 1.16 µM [falling, partial curve, poor fit].

For `Cc1ccc(C)c(N2CCN(C(=O)c3ccc(CS(=O)(=O)c4ccccc4C)o3)CC2)c1`, the AC50 under setting [1] is 29.1 µM [falling, single point].

Take `C=C(C)COc1ccc(-c2n[nH]c(C)c2Oc2ccccc2OC)c(O)c1`: the AC50 under setting [1] was 2.24 µM [rising, single point].

For `C/C(=N\NC(=S)NC(C)C)c1ccccc1`, the AC50 was 8.91 µM [rising, partial curve, poor fit] under setting [1] and 22.4 µM [falling, single point] under setting [2].

Consider `Cc1nn(CCCC(=O)Nc2sc3c(c2C#N)CCC3)c(C)c1[N+](=O)[O-]`, for which the AC50 under setting [1] was 5.01 µM [rising, partial curve, poor fit].

Turning to `O=C(N/C(=N\O)c1ccccc1)Nc1ccc(Cl)cc1`, the AC50 under setting [1] is 29.1 µM [rising, single point].

For `O=C(CCC1CCCN(C(=O)c2ccc3cc[nH]c3c2)C1)NCc1ccc(F)c(F)c1` (stereo unspecified), under setting [1], the AC50 is 2.51 µM [rising, full curve, poor fit].

Take `Cc1ccc(C(=O)COC(=O)CCN2C(=O)C3C4CC(C(Br)C4Br)C3C2=O)cc1` (stereo unspecified): the AC50 under setting [1] was 29.1 µM [rising, partial curve, poor fit].

`Cc1[nH]c2ccc(C(=O)OCCN(C)C)cc2c1C`: under setting [1], the AC50 was 6.51 µM [rising, single point].

On to `C=C(C)C(=O)Nc1ccc(NC(C)C)cc1`, for which the AC50 under setting [1] is 35.5 µM [rising, single point].

With `COc1cccc(NC(=O)COC(=O)c2c(C)nn(-c3ccccc3)c2C)c1`, the half-maximal activity concentration (AC50) under setting [1] was 7.31 µM [falling, partial curve].

As for `NCCOc1ccc(C2CCCCC2)cc1`, the AC50 under setting [2] is 3.55 µM [rising, partial curve, poor fit].

In the case of `COc1cccc(NC(=O)C2CC(=O)N(C)C(=Nc3cccc(F)c3)S2)c1` (stereo unspecified), under setting [1], the AC50 was 22.4 µM [falling, single point].

As for `O=C(Nc1ccc2oc(-c3ccncc3)nc2c1)c1c(F)c(F)c(F)c(F)c1F`, under setting [1], the AC50 is 0.058 µM [rising, full curve, poor fit].

As for `O=C(N/N=C1\CCCc2c1[nH]c1ccc(Cl)cc21)c1ccncc1`, under setting [1], the AC50 is 11.2 µM [falling, partial curve].

As to `COc1ccc2nc(C)cc(N/N=C/c3ccccc3)c2c1`, the AC50 under setting [1] was 1.3 µM [falling, full curve].

On to `NCC(O)(c1ccc(Cl)cc1)c1ccc(Cl)cc1`, for which, under setting [1], the AC50 is 22.4 µM [falling, partial curve].

As to `COc1ccc(NC(=O)CC(C)c2ccccc2)c([N+](=O)[O-])c1` (stereo unspecified), the AC50 under setting [1] is 2.91 µM [rising, full curve, poor fit].

Turning to `Cc1ccc(-n2nc3ccc(NC(=O)C(C)C)cc3n2)cc1`, the AC50 under setting [1] is 0.501 µM [rising, full curve, poor fit].

Take `CN(Cc1ccccc1)C(=O)COC(=O)/C=C/c1ccco1`: under setting [1], the AC50 is 20 µM [falling, partial curve, poor fit].

Turning to `COc1ccc(C2NN=C(c3ccc(C)cc3)S2)cc1OC` (stereo unspecified), the AC50 under setting [1] was 35.5 µM [falling, single point].

Turning to `O=S(=O)(c1ccccc1)N(Cc1ccccn1)Cc1ccccn1`, the half-maximal activity concentration (AC50) under setting [1] was 12.6 µM [rising, partial curve, poor fit].

For the compound `CSc1ccc(/C=C/c2ccc3cccc(O)c3n2)cc1`, the AC50 under setting [1] is 0.562 µM [falling, full curve, poor fit].

As for `O=C(NC1CCOc2ccccc21)c1ccccn1` (stereo unspecified), the concentration at half-maximal activity (AC50) under setting [1] was 22.4 µM [falling, single point].

On to `CCNC(=S)NNc1ccccc1`, for which the AC50 by setting is: under setting [1], 35.5 µM [falling, single point]; under setting [2], 15.8 µM [falling, partial curve].

As to `CCn1c(-c2cc(OC)c(OC)c(OC)c2)n[nH]c1=S`, the AC50 under setting [1] was 25.9 µM [rising, single point].

Turning to `CSc1ccc(/C=N/Nc2cccc(C(=O)O)c2)cc1`, the AC50 under setting [1] was 17.8 µM [falling, partial curve, poor fit].

On to `Cc1cc(C)nc(SCc2ccc(C(=O)NNC(=O)Nc3cccc(Cl)c3)cc2)n1`, for which the AC50 under setting [1] is 29.1 µM [falling, single point].

With `CCC1CCCCN1CCCNC(=O)Cn1ncc2c(C)n(Cc3ccccc3Cl)c(C)c2c1=O` (stereo unspecified), under setting [1], the AC50 is 22.4 µM [falling, partial curve, poor fit].

Consider `N#Cc1nc(-c2ccc(OCc3ccc(Cl)cc3)cc2)oc1NCCCn1ccnc1`, for which the AC50 under setting [1] is 35.5 µM [rising, single point].

`Cc1cccc2nc(-c3ccco3)c(Nc3ccccc3)n12`: the concentration at half-maximal activity (AC50) reads like this: under setting [1], 35.5 µM [falling, single point]; under setting [2], 15.8 µM [rising, partial curve, poor fit].

For `COc1ccc(N=CC=C2OC(C)(C)C(C)(C)O2)cc1OC`, the AC50 under setting [1] was 35.5 µM [rising, single point].

With `Cc1ccc(N(C(=O)C(F)(F)F)C(C(=O)NC2CCCCC2)c2cccs2)cc1` (stereo unspecified), under setting [1], the AC50 was 10 µM [falling, partial curve, poor fit].

As to `O=C(Nc1ccc(F)c(Cl)c1)c1nsc(Cl)c1Cl`, under setting [1], the AC50 was 15.8 µM [falling, single point].

Turning to `Cc1cc(N2C(=O)C3CCC(c4ccccc4)CC3C2=O)no1` (stereo unspecified), the AC50 under setting [1] is 3.55 µM [rising, partial curve, poor fit].

For the compound `CCOCCCN(C)C1CCN(C(=O)c2oc3ccccc3c2NC(=O)Cc2ccc(F)cc2)CC1`, the AC50 under setting [1] was 2.82 µM [falling, partial curve, poor fit].

With `O=C(O)C1=C[C@H](c2csc3ccccc23)C[C@H](OCCCCO)O1`, the AC50 under setting [1] is 12.6 µM [falling, single point].

As for `COCCNC(=O)CCSc1nc(-c2ccc(OC)cc2)cc(C(F)(F)F)n1`, the AC50 under setting [1] is 16.4 µM [rising, partial curve, poor fit].

Turning to `CC(C)N(C(=O)Cn1cc(S(=O)(=O)CC(=O)Nc2ccccc2)c2ccccc21)C(C)C`, the AC50 under setting [1] was 14.1 µM [falling, partial curve, poor fit].

Take `C=CCn1c(SCC(N)=O)nnc1-c1ccccc1O`: the AC50 under setting [1] was 0.447 µM [rising, partial curve, poor fit].

Take `CC1Cc2ccccc2N1S(=O)(=O)c1cccc(C(=O)NNC(=O)c2ccccc2F)c1` (stereo unspecified): the AC50 under setting [1] was 4.11 µM [falling, partial curve, poor fit].

In the case of `C=C(C)CN=C1SC(C(=O)Nc2sc3c(c2C(=O)OC)CCC3)C(N)=C1C(N)=O` (stereo unspecified), the AC50 under setting [1] is 23.1 µM [falling, single point].

Turning to `COc1ccc(CCNC(=O)CSc2ncnc3c2oc2ccccc23)cc1OC`, under setting [1], the AC50 was 17.8 µM [rising, single point].

Turning to `COCCN(C(=O)CSc1ncn[nH]1)c1c(N)n(Cc2ccccc2)c(=O)[nH]c1=O`, the AC50 under setting [1] is 23.1 µM [rising, partial curve, poor fit].

With `CCOC(=O)c1ccc(-c2ccc(CO)o2)cc1`, under setting [1], the AC50 is 2.82 µM [rising, partial curve, poor fit].

As for `CC(C)OC(=O)NCCOC(=O)Nc1ccc(Cl)cc1`, the AC50 under setting [1] was 0.891 µM [rising, full curve, poor fit].

For `CCc1cc2c(=O)c(-c3ccc4c(c3)OCCO4)coc2cc1OS(C)(=O)=O`, the AC50 under setting [1] is 20.6 µM [falling, partial curve].

For `BrC(=C\c1ccccc1)/C=N/n1cnnc1`, under setting [1], the AC50 was 35.5 µM [falling, single point].

In the case of `COC(=O)CC1C(=O)NCCN1C(=O)Nc1cccc(Cl)c1` (stereo unspecified), under setting [1], the AC50 was 6.31 µM [rising, single point].

Take `COc1ccc(NC(=O)CN(C)C(=O)/C=C/c2ccc(OCc3ccccc3)cc2)cc1`: the AC50 under setting [1] is 2.51 µM [falling, partial curve, poor fit].

As for `CCN1CCN(C(=O)c2ccc(CS(=O)(=O)Cc3ccccc3F)o2)CC1`, the AC50 under setting [1] is 6.51 µM [falling, single point].

For `O=c1c2ccccc2oc2cc(-c3ccc(CN4CCOCC4)cc3)ccc12`, the AC50 under setting [1] was 20.6 µM [rising, partial curve, poor fit].

On to `CCCC(=O)Nc1ccc(-c2ccc(NC(=O)CCC)cc2)cc1`, for which, under setting [1], the AC50 was 0.517 µM [rising, full curve, poor fit].

For the compound `C=C1c2cc(CC)ccc2NC(=O)N1c1ccc(C)cc1`, under setting [1], the AC50 was 9.2 µM [rising, partial curve, poor fit].

On to `O=C(c1cccc(-n2cnnn2)c1)N1CC=C(c2ccccc2)CC1`, for which the AC50 under setting [1] was 35.5 µM [falling, single point].

In the case of `O=C(/C=C/c1cccs1)Nc1scc(-c2ccccc2)c1C(=O)O`, the AC50 under setting [1] was 8.91 µM [falling, partial curve].

On to `CC[C@@]1(c2ccccc2OC)C(=O)N(C(=O)OC)N1C(=O)OC`, for which the AC50 under setting [1] was 1.78 µM [falling, full curve, poor fit].

In the case of `Cc1ccccc1OCCn1cnc2c(N)ncnc21`, the AC50 under setting [2] was 23.1 µM [falling, partial curve, poor fit].

As for `O=C(Nc1nc2ccccc2s1)c1ccccc1[N+](=O)[O-]`, under setting [1], the AC50 was 7.08 µM [falling, partial curve].

On to `Cc1cccc(NC(=O)C(CC(C)C)NC(=O)C2CCC(C)CC2)n1` (stereo unspecified), for which the AC50 under setting [1] is 11.2 µM [rising, partial curve, poor fit].
